Source: article PMC8009878
These are yes or no findings as the source states them, for the method shown. Binding seen in cells or lysates may run through a third protein. Some entries that bind do so weakly or less than the wild type.

Sequences of proteins named here, by UniProt entry; tags and fusion partners are left off. Residues count along the entry.
UniProt P30101, residues 25-505: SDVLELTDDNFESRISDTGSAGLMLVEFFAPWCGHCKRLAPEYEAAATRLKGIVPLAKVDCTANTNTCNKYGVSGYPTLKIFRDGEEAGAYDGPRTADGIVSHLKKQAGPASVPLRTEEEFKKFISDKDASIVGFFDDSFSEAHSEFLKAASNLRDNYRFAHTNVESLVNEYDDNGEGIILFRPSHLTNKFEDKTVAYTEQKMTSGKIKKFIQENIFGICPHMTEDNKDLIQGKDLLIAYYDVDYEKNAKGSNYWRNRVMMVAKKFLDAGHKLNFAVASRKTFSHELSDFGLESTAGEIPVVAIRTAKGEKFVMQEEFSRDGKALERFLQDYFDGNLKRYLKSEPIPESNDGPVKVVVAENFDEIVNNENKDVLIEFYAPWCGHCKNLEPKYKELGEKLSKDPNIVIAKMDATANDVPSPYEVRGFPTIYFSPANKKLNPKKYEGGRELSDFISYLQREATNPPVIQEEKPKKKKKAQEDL
UniProt P53350: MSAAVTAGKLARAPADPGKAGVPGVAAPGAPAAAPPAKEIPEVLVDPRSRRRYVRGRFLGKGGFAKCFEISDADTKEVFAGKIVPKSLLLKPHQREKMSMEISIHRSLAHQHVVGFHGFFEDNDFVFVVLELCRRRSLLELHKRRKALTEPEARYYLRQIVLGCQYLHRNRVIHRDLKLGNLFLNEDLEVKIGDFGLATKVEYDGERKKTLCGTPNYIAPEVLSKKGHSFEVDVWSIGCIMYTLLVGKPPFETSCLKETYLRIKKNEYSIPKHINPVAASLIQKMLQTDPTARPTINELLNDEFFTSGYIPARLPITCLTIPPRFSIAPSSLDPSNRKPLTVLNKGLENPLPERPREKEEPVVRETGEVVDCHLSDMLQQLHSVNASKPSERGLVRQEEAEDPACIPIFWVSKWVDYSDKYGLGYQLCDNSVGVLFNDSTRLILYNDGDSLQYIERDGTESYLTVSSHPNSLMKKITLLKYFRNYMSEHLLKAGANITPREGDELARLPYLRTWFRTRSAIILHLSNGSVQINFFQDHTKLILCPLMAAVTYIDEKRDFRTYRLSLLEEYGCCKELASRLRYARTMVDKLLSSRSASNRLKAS
UniProt P01106: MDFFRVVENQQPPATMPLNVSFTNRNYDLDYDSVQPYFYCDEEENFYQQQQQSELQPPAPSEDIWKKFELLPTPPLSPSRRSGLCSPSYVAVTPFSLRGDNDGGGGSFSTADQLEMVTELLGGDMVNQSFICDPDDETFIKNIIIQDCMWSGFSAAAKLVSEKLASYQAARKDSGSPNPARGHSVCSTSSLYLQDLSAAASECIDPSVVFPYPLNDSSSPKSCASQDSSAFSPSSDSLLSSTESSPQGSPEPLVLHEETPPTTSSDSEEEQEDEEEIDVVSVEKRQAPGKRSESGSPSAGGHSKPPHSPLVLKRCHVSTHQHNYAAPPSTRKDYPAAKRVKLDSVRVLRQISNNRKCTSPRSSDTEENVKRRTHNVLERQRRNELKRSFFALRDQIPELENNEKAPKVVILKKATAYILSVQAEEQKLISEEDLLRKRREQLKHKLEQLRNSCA
UniProt P31749: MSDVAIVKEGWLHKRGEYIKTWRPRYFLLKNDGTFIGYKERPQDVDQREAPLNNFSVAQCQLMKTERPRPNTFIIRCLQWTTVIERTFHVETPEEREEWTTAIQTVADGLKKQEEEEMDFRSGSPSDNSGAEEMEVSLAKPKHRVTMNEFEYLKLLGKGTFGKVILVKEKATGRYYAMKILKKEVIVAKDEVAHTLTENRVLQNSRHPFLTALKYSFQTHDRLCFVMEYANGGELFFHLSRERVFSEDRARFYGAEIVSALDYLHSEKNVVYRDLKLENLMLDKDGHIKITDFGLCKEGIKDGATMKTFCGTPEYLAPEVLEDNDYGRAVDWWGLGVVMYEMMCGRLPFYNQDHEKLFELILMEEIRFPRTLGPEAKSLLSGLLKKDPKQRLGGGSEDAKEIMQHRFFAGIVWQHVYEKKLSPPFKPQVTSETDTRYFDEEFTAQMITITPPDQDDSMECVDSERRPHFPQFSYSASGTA

Molecular target: ERp57-V5 (disulfide isomerase ERp57 with a C-terminal V5-tag) (UniProt P30101)
Assay: co-IP; HEK293T co-transfected with ERp57-V5 and one partner plasmid, 72 h; lysis in 50 mM Tris pH 7.3, 150 mM NaCl, 1% NP-40; V5 antibody 4 h at 4 °C, magnetic beads 1 h, 4 washes; control IP: lysate without V5 antibody; western blot with anti-FLAG, anti-HA, anti-GFP or anti-c-Myc

Substance | binding
EYFP-PLK1 (polo-like kinase 1) (from UniProt P53350 1-603) | no binding
Flag-c-Myc (from UniProt P01106 1-454) | binds
HA-AKT1 (from UniProt P31749 1-480) | no binding
